Test results published in patent US12099068B2, “Biomarkers for graft-versus-host disease” (Incyte Corporation, priority 2018, dated 2024).

B1: SCGB3A1 (protein, UniProt Q96QR1 21-104, looked up)
Secretoglobin family 3A …: FLVGSAKPVAQPVAALESAAEAGAGTLANPLGTLNPLKLLLSSLGIPVNHLIEGSQKCVAELGPQAVGAVKALKALLGALTVFG
B2: FAM3B (protein, UniProt P58499 30-235, looked up)
Protein FAM3B: ELIPDAPLSSAAYSIRSIGERPVLKAPVPKRQKCDHWTPCPSDTYAYRLLSGGGRSKYAKICFEDNLLMGEQLGNVARGINIAIVNYVTGNVTATRCFDMYEGDNSGPMTKFIQSAAPKSLLFMVTYDDGSTRLNNDAKNAIEALGSKEIRNMKFRSSWVFIAAKGLELPSEIQREKINHSDAKNNRYSGWPAEIQIEGCIPKERS
B3: PVALB (protein, UniProt P20472 2-110, looked up)
Parvalbumin alpha: SMTDLLNAEDIKKAVGAFSATDSFDHKKFFQMVGLKKKSADDVKKVFHMLDKDKSGFIEEDELGFILKGFSPDARDLSAKETKMLMAAGDKDGDGKIGVDEFSTLVAES
B4: ANG-1 (protein, UniProt Q15389 16-498, looked up)
Angiopoietin-1: HIGCSNQRRSPENSGRRYNRIQHGQCAYTFILPEHDGNCRESTTDQYNTNALQRDAPHVEPDFSSQKLQHLEHVMENYTQWLQKLENYIVENMKSEMAQIQQNAVQNHTATMLEIGTSLLSQTAEQTRKLTDVETQVLNQTSRLEIQLLENSLSTYKLEKQLLQQTNEILKIHEKNSLLEHKILEMEGKHKEELDTLKEEKENLQGLVTRQTYIIQELEKQLNRATTNNSVLQKQQLELMDTVHNLVNLCTKEGVLLKGGKREEEKPFRDCADVYQAGFNKSGIYTIYINNMPEPKKVFCNMDVNGGGWTVIQHREDGSLDFQRGWKEYKMGFGNPSGEYWLGNEFIFAITSQRQYMLRIELMDWEGNRAYSQYDRFHIGNEKQNYRLYLKGHTGTAGKQSSLILHGADFSTKDADNDNCMCKCALMLTGGWWFDACGPSNLNGMFYTAGQNHGKLNGIKWHYFKGPSYSLRSTTMMIRPLDF
B5: NEP (protein, UniProt P08473 2-750, looked up)
Neprilysin: GKSESQMDITDINTPKPKKKQRWTPLEISLSVLVLLLTIIAVTMIALYATYDDGICKSSDCIKSAARLIQNMDATTEPCTDFFKYACGGWLKRNVIPETSSRYGNFDILRDELEVVLKDVLQEPKTEDIVAVQKAKALYRSCINESAIDSRGGEPLLKLLPDIYGWPVATENWEQKYGASWTAEKAIAQLNSKYGKKVLINLFVGTDDKNSVNHVIHIDQPRLGLPSRDYYECTGIYKEACTAYVDFMISVARLIRQEERLPIDENQLALEMNKVMELEKEIANATAKPEDRNDPMLLYNKMTLAQIQNNFSLEINGKPFSWLNFTNEIMSTVNISITNEEDVVVYAPEYLTKLKPILTKYSARDLQNLMSWRFIMDLVSSLSRTYKESRNAFRKALYGTTSETATWRRCANYVNGNMENAVGRLYVEAAFAGESKHVVEDLIAQIREVFIQTLDDLTWMDAETKKRAEEKALAIKERIGYPDDIVSNDNKLNNEYLELNYKEDEYFENIIQNLKFSQSKQLKKLREKVDKDEWISGAAVVNAFYSSGRNQIVFPAGILQPPFFSAQQSNSLNYGGIGMVIGHEITHGFDDNGRNFNKDGDLVDWWTQQSASNFKEQSQCMVYQYGNFSWDLAGGQHLNGINTLGENIADNGGLGQAYRAYQNYIKKNGEEKLLPGLDLNHKQLFFLNFAQVWCGTYRPEYAVNSIKTDVHSPGNFRIIGTLQNSAEFSEAFHCRKNSYMNPEKKCRVW
B6: SLAMF8 (protein, UniProt Q9P0V8 23-285, looked up)
SLAM family member 8: AQVLSKVGGSVLLVAARPPGFQVREAIWRSLWPSEELLATFFRGSLETLYHSRFLGRAQLHSNLSLELGPLESGDSGNFSVLMVDTRGQPWTQTLQLKVYDAVPRPVVQVFIAVERDAQPSKTCQVFLSCWAPNISEITYSWRRETTMDFGMEPHSLFTDGQVLSISLGPGDRDVAYSCIVSNPVSWDLATVTPWDSCHHEAAPGKASYKDVLLVVVPVSLLLMLVTLFSAWHWCPCSGKKKKDVHADRVGPETENPLVQDLP
B7: CRTAM (protein, UniProt O95727 18-393, looked up)
Cytotoxic and regulatory …: SLTNHTETITVEEGQTLTLKCVTSLRKNSSLQWLTPSGFTIFLNEYPALKNSKYQLLHHSANQLSITVPNVTLQDEGVYKCLHYSDSVSTKEVKVIVLATPFKPILEASVIRKQNGEEHVVLMCSTMRSKPPPQITWLLGNSMEVSGGTLHEFETDGKKCNTTSTLIIHTYGKNSTVDCIIRHRGLQGRKLVAPFRFEDLVTDEETASDALERNSLSSQDPQQPTSTVSVTEDSSTSEIDKEEKEQTTQDPDLTTEANPQYLGLARKKSGILLLTLVSFLIFILFIIVQLFIMKLRKAHVIWKKENEVSEHTLESYRSRSNNEETSSEEKNGQSSHPMRCMNYITKLYSEAKTKRKENVQHSKLEEKHIQVPESIV
B8: SERPINA5 (protein, UniProt P05154 26-406, looked up)
Plasma serine protease …: EMKKRVEDLHVGATVAPSSRRDFTFDLYRALASAAPSQSIFFSPVSISMSLAMLSLGAGSSTKMQILEGLGLNLQKSSEKELHRGFQQLLQELNQPRDGFQLSLGNALFTDLVVDLQDTFVSAMKTLYLADTFPTNFRDSAGAMKQINDYVAKQTKGKIVDLLKNLDSNAVVIMVNYIFFKAKWETSFNHKGTQEQDFYVTSETVVRVPMMSREDQYHYLLDRNLSCRVVGVPYQGNATALFILPSEGKMQQVENGLSEKTLRKWLKMFKKRQLELYLPKFSIEGSYQLEKVLPSLGISNVFTSHADLSGISNHSNIQVSEMVHKAVVEVDESGTRAAAATGTIFTFRSARLNSQRLVFNRPFLMFIVDNNILFLGKVNRP
B9: SCGB3A2 (protein, UniProt Q96PL1 22-93, looked up)
Secretoglobin family 3A …: FLINKVPLPVDKLAPLPLDNILPFMDPLKLLLKTLGISVEHLVEGLRKCVNELGPEASEAVKKLLEALSHLV
B10: VWC2 (protein, UniProt Q2TAL6 28-325, looked up)
Brorin: SPSIPLEKLAQAPEQPGQEKREHASRDGPGRVNELGRPARDEGGSGRDWKSKSGRGLAGREPWSKLKQAWVSQGGGAKAGDLQVRPRGDTPQAEALAAAAQDAIGPELAPTPEPPEEYVYPDYRGKGCVDESGFVYAIGEKFAPGPSACPCLCTEEGPLCAQPECPRLHPRCIHVDTSQCCPQCKERKNYCEFRGKTYQTLEEFVVSPCERCRCEANGEVLCTVSACPQTECVDPVYEPDQCCPICKNGPNCFAETAVIPAGREVKTDECTICHCTYEEGTWRIERQAMCTRHECRQM
B11: hK14 (protein, UniProt Q9P0G3 41-267, looked up)
Kallikrein-14: IIGGHTCTRSSQPWQAALLAGPRRRFLCGGALLSGQWVITAAHCGRPILQVALGKHNLRRWEATQQVLRVVRQVTHPNYNSRTHDNDLMLLQLQQPARIGRAVRPIEVTQACASPGTSCRVSGWGTISSPIARYPASLQCVNINISPDEVCQKAYPRTITPGMVCAGVPQGGKDSCQGDSGGPLVCRGQLQGLVSWGMERCALPGYPGVYTNLCKYRSWIEETMRDK
B12: CKAP4 (protein, UniProt Q07065 1-602, looked up)
Cytoskeleton-associated …: MPSAKQRGSKGGHGAASPSEKGAHPSGGADDVAKKPPPAPQQPPPPPAPHPQQHPQQHPQNQAHGKGGHRGGGGGGGKSSSSSSASAAAAAAAASSSASCSRRLGRALNFLFYLALVAAAAFSGWCVHHVLEEVQQVRRSHQDFSRQREELGQGLQGVEQKVQSLQATFGTFESILRSSQHKQDLTEKAVKQGESEVSRISEVLQKLQNEILKDLSDGIHVVKDARERDFTSLENTVEERLTELTKSINDNIAIFTEVQKRSQKEINDMKAKVASLEESEGNKQDLKALKEAVKEIQTSAKSREWDMEALRSTLQTMESDIYTEVRELVSLKQEQQAFKEAADTERLALQALTEKLLRSEESVSRLPEEIRRLEEELRQLKSDSHGPKEDGGFRHSEAFEALQQKSQGLDSRLQHVEDGVLSMQVASARQTESLESLLSKSQEHEQRLAALQGRLEGLGSSEADQDGLASTVRSLGETQLVLYGDVEELKRSVGELPSTVESLQKVQEQVHTLLSQDQAQAARLPPQDFLDRLSSLDNLKASVSQVEADLKMLRTAVDSLVAYSVKIETNENNLESAKGLLDDLRNDLDRLFVKVEKIHEKV
B13: NINJ1 (protein, UniProt Q92982 1-152, looked up)
Ninjurin-1: MDSGTEEYELNGGLPPGTPGSPDASPARWGWRHGPINVNHYASKKSAAESMLDIALLMANASQLKAVVEQGPSFAFYVPLVVLISISLVLQIGVGVLLIFLVKYDLNNPAKHAKLDFLNNLATGLVFIIVVVNIFITAFGVQKPLMDMAPQQ
B14: CNDP1 (protein, UniProt Q96KN2 27-507, looked up)
Beta-Ala-His dipeptidase: SPSPPPALLEKVFQYIDLHQDEFVQTLKEWVAIESDSVQPVPRFRQELFRMMAVAADTLQRLGARVASVDMGPQQLPDGQSLPIPPVILAELGSDPTKGTVCFYGHLDVQPADRGDGWLTDPYVLTEVDGKLYGRGATDNKGPVLAWINAVSAFRALEQDLPVNIKFIIEGMEEAGSVALEELVEKEKDRFFSGVDYIVISDNLWISQRKPAITYGTRGNSYFMVEVKCRDQDFHSGTFGGILHEPMADLVALLGSLVDSSGHILVPGIYDEVVPLTEEEINTYKAIHLDLEEYRNSSRVEKFLFDTKEEILMHLWRYPSLSIHGIEGAFDEPGTKTVIPGRVIGKFSIRLVPHMNVSAVEKQVTRHLEDVFSKRNSSNKMVVSMTLGLHPWIANIDDTQYLAAKRAIRTVFGTEPDMIRDGSTIPIAKMFQEIVHKSVVLIPLGAVDDGEHSQNEKINRWNYIEGTKLFAAFFLEMAQLH
B15: CLM-1 (protein, UniProt Q8TDQ1 20-290, looked up)
CMRF35-like molecule 1: TQITGPTTVNGLERGSLTVQCVYRSGWETYLKWWCRGAIWRDCKILVKTSGSEQEVKRDRVSIKDNQKNRTFTVTMEDLMKTDADTYWCGIEKTGNDLGVTVQVTIDPAPVTQEETSSSPTLTGHHLDNRHKLLKLSVLLPLIFTILLLLLVAASLLAWRMMKYQQKAAGMSPEQVLQPLEGDLCYADLTLQLAGTSPQKATTKLSSAQVDQVEVEYVTMASLPKEDISYASLTLGAEDQEPTYCNMGHLSSHLPGRGPEEPTEYSTISRP
B16: VEGFD (protein, UniProt O43915 89-205, looked up)
Vascular endothelial growth …: FAATFYDIETLKVIDEEWQRTQCSPRETCVEVASELGKSTNTFFKPPCVNVFRCGGCCNEESLICMNTSTSYISKQLFEISVPLTSVPELVPVKVANHTGCKCLPTAPRHPYSIIRR

These molecules were tested on plasma proteins (assay: OLINK proximity extension assay of baseline plasma, CR compared to PD/Death, updated classification, Example 5 (Table 11)). Conditions: itacitinib 200 or 300 mg QD plus corticosteroids, response at day 28.
Format: in vivo, human

Going from B1 to B2, the “Fold Change, Up-Regulated in CR Compared to PD/Death” value (from here on “Fold Change, Up-Regulated”) falls from 3.1352 to 2.8141.

Going from B3 to B4, the “Fold Change, Up-Regulated” value falls from 2.6266 to 2.3398.

Compared with B8, B9 is lower in “Fold Change, Up-Regulated” value: 2.0891 for the first, 1.8338 for the second.

Compared with B10, B11 is lower in “Fold Change, Up-Regulated” value: 1.7842 for the first, 1.6607 for the second.

Going from B14 to B16, the “Fold Change, Up-Regulated” value falls from 1.5685 to 1.4176.

First: B5
Second: B6
The “Fold Change, Down-Regulated in CR Compared to PD/Death” value (“Fold Change, Down-Regulated” below) of the first is lower: −3.4607 for the first, −3.2642 for the second.

First: B7
Second: B12
The “Fold Change, Down-Regulated” value of the first is lower: −3.2086 for the first, −2.3793 for the second.

Compared with B13, B15 is higher in “Fold Change, Down-Regulated” value: −2.3018 for the first, −2.2069 for the second.
